No constants are given. Whether binding was seen depends on the method and setting. For some assays here: In cells and extracts the contact can be indirect. Some binding calls cover weakened binding; strength is not graded here.
What was measured:
[1] = target: leucyl-tRNA synthetase (purified LRS) (human) (UniProt Q9P2J5); assay: ELISA; purified LRS coated on 96-well plates; GST-RagD (roughly purified on a glutathione column) added together with each β-turn mimetic compound for 3 h; bound RagD-GST detected with anti-GST antibody and enzyme-conjugated secondary antibody; both purified
[2] = target: CFP (Cyan Fluorescent Protein)-fused LRS (human) (UniProt Q9P2J5); assay: FRET or BRET; live HEK293T cells co-transfected with LRS-CFP and RagD-YFP; 40 μM 5c{3,9} or 5a{2,9} or DMSO added after 30 min; images at 10 min intervals over 3.5 h in single cells; CFP/CFP, CFP/YFP, YFP/YFP filter sets

Protein sequences, listed by entry. Tags and fused reporters are not part of them.
UniProt Q9P2J5: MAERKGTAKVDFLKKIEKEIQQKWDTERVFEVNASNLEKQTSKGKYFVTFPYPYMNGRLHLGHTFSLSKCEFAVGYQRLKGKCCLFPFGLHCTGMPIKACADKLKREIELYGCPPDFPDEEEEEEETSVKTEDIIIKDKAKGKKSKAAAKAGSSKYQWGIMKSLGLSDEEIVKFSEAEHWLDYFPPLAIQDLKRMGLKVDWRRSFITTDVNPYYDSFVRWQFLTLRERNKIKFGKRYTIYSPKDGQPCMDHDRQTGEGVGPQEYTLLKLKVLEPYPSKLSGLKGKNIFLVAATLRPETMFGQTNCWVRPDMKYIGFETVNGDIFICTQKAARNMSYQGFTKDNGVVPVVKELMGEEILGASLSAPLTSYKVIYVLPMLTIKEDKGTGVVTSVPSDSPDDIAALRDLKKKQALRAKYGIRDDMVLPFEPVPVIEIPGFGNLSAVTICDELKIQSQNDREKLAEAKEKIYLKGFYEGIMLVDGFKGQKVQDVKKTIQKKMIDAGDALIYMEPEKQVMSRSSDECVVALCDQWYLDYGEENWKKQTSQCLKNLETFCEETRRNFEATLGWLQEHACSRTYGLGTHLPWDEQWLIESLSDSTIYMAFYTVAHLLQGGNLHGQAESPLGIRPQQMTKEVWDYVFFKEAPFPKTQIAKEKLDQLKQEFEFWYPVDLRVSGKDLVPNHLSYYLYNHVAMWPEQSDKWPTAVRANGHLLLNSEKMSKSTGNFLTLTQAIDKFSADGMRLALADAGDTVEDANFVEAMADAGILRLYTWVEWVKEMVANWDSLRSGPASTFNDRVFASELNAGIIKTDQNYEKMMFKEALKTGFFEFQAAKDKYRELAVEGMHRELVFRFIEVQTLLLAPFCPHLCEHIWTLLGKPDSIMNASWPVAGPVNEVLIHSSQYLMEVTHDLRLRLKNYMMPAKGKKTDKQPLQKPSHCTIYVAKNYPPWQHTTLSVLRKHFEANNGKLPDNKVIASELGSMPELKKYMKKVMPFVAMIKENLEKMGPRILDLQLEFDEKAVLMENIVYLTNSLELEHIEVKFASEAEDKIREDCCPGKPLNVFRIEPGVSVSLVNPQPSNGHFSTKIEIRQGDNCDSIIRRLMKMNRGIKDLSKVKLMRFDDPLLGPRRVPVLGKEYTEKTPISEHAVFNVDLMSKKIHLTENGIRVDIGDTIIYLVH
UniProt Q9NQL2: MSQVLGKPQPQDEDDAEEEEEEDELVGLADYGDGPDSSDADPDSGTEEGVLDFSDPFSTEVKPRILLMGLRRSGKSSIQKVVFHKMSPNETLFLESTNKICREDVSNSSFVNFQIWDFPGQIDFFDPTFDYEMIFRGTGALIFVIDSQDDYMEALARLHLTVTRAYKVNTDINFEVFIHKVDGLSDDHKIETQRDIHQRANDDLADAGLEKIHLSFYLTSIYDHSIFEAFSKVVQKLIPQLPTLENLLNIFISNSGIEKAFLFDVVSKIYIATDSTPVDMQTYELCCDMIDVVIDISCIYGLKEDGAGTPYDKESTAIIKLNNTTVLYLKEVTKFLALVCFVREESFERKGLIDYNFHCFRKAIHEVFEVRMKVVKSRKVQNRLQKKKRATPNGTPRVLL

Row | binding [1] | binding [2] | Substance
1 | binds |  | GST (Glutathione S-transferase)-tagged RagD (from UniProt Q9NQL2 1-400)
2 |  | binds | YFP (Yellow Fluorescent Protein)-fused RagD (from UniProt Q9NQL2 1-400)

Source: publication PMC5477029
